Results are given in words; binding and its absence hold for the method and conditions named. In cells and extracts the contact can be indirect. Some binding calls cover weakened binding; strength is not graded here.
Target: RNA helicase A (RHA)/DHX9 (human (endogenous in A549, HeLa, THP1)) (UniProt Q08211)
Assay: co-IP; uninfected HeLa cell lysates treated with RNase V1 (10 u/ml) at 4°C overnight; IP with rabbit anti-DHX9; blot with mouse anti-PKR and anti-DHX9

By UniProt entry, the sequences of proteins in these tests, tags left out.
UniProt Q08211: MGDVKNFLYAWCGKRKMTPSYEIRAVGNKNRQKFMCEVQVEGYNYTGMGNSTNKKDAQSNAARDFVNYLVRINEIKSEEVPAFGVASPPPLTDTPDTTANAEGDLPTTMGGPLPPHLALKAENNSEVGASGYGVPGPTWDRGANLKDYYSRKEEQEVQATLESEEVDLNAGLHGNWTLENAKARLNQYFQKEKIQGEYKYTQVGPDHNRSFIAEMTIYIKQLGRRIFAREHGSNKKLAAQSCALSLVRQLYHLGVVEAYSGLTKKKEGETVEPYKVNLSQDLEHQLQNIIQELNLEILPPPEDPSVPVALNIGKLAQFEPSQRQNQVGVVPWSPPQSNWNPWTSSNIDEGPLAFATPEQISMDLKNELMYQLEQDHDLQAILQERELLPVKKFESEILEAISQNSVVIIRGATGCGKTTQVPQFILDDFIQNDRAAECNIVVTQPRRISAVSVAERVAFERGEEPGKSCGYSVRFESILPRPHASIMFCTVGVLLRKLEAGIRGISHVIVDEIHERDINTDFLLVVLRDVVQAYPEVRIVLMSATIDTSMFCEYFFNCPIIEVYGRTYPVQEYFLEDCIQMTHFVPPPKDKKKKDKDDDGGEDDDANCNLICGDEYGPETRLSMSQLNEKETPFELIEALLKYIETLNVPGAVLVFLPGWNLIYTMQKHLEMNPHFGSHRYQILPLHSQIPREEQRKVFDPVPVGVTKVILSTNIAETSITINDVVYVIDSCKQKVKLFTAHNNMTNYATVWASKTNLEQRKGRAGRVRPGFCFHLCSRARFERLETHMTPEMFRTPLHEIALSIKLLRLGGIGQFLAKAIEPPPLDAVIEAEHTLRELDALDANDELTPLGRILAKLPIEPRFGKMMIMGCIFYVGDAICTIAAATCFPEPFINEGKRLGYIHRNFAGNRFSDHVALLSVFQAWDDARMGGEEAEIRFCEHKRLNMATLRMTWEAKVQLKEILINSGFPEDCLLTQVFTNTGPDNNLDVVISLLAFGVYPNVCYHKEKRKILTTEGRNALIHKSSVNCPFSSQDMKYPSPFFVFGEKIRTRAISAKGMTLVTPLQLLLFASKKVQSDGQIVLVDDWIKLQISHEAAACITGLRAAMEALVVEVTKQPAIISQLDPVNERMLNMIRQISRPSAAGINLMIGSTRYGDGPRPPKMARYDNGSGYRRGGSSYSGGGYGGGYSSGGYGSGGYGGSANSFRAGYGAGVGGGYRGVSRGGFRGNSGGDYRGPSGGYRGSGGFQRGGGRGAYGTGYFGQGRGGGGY
UniProt P19525: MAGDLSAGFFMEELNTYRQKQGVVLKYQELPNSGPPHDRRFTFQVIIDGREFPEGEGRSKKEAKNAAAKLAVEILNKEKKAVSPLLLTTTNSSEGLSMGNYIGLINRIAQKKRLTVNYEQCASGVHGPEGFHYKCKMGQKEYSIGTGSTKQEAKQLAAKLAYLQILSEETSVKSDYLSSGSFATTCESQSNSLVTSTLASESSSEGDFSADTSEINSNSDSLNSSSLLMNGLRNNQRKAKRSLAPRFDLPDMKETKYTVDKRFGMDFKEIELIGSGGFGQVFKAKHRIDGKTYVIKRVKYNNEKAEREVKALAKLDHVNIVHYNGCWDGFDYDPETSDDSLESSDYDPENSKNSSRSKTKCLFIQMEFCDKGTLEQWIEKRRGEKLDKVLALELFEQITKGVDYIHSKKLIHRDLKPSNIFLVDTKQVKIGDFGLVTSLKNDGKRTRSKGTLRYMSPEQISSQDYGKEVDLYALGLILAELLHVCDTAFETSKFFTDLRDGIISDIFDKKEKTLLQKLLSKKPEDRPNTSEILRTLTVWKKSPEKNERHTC

In the case of “Protein Kinase R (PKR) (from UniProt P19525 1-551)”, the binding is reported as “binds”.

Reference: PMC3701710
